Laboratory results reported in paper PMC10803403.
These are yes or no findings as the source states them, for the method shown. Binding seen in cells or lysates may run through a third protein. A yes stands for co-enrichment or nearness to the bait. Other partners may have been found.

By UniProt entry, the sequences of proteins in these tests, tags left out.
UniProt P05556: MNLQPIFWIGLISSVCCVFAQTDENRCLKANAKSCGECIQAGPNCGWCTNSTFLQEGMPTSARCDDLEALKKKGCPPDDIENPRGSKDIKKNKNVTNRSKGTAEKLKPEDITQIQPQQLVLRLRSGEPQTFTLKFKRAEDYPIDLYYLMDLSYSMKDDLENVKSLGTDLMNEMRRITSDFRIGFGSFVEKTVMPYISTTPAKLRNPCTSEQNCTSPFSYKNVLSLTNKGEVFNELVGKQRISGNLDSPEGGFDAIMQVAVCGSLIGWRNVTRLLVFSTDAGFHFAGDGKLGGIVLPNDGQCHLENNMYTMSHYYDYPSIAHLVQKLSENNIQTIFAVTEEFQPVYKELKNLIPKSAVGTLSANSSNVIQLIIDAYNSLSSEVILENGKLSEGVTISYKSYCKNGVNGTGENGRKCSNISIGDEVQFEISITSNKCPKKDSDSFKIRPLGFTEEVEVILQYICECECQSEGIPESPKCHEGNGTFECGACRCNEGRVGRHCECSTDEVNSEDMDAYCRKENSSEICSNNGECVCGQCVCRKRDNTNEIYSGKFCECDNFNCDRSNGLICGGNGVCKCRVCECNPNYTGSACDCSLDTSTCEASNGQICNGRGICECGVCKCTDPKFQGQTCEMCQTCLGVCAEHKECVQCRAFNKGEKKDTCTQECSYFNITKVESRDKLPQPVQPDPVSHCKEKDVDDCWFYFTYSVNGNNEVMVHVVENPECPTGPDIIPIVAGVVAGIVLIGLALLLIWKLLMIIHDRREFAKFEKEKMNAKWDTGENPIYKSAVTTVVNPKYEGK
UniProt Q13200: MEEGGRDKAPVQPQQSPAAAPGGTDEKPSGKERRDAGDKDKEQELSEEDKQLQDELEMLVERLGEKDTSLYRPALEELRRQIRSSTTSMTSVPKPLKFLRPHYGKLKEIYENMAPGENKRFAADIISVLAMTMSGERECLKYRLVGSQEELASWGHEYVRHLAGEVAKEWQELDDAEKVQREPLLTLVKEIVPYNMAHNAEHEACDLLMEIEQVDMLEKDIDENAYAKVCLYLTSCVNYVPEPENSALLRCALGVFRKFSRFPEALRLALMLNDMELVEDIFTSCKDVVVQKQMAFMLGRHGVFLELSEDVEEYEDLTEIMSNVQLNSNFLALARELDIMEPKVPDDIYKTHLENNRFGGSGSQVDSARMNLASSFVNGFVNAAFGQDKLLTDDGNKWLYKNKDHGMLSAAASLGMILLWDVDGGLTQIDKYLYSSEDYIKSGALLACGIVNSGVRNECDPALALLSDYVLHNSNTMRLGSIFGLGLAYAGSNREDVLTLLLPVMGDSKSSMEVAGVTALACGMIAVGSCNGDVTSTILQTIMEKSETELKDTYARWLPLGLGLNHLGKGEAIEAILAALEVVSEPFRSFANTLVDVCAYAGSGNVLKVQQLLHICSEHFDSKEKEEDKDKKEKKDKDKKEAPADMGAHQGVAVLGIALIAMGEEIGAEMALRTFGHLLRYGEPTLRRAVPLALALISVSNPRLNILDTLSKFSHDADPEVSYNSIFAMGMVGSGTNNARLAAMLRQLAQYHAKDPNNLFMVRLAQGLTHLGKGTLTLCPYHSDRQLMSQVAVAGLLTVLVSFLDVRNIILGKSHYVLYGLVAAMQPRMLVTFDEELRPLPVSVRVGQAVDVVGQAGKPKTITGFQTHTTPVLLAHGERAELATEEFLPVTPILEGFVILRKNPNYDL

B1: S100A8 (protein, UniProt P05109 1-93)
chain: MLTELEKALNSIIDVYHKYSLIKGNFHAVYRDDLKKLLETECPQYIRKKGADVWFKELDINTDGAVNFQEFLILVIKMGVAAHKKSHEESHKE

Biological target: integrin β1 chain (human (endogenous in Hep2)) (UniProt P05556)
Assay: affinity purification with mass spectrometry; Hep2 cells stimulated with GAS-FbaA, S.a-FnBpA or L.m-FbpA in the presence of Fn protein; Co-IP with anti-integrin β1 mAb; hits are the intersection of the three FnBp groups minus the proteins of the Fn-alone group

| Molecule | binding |
| --- | --- |
| PSMD2 (from UniProt Q13200 1-908) | binds |
| B1 | binds |
